The other results are listed elsewhere or left out.
How the values were obtained:
Test in all cases: log2 fold change, soluble protein after heating vs DMSO (PISA); higher = thermal stabilisation; K562 cells, 10 uM, 30 min; active = over 0.2 and 3.5 SD of the protein, either way, in both replicates (recomputed)
[1] = compound: C1=CC=C(C=C1)[C@H](COC2=CC3=C(C=C2)NC(=O)N3)NC(=O)C4=CC=CN(C4=O)CC5=CC(=C(C=C5)F)F
How it was run: (§1)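 Quantification of soluble protein used TMTpro 16plex LC-MS/MS, with channel sums equalised. Samples were the supernatant after 21,000xg for 90 min of pooled aliquots from K562 cells (2×10^6 cells/mL) treated with 10 μM compound for 30 min, heated for 3 min over 48°C-58°C, and extracted in PBS with 0.5% NP-40 at 4°C. Values, from duplicates, describe thermal stability against control samples on a log2 fold-change scale.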

Protein sequences, listed by entry. Tags and fused reporters are not part of them. Lines headed by an entry give the natural chain unless they say otherwise; changes in a name come on top.
UniProt Q92922, whole entry, looked up: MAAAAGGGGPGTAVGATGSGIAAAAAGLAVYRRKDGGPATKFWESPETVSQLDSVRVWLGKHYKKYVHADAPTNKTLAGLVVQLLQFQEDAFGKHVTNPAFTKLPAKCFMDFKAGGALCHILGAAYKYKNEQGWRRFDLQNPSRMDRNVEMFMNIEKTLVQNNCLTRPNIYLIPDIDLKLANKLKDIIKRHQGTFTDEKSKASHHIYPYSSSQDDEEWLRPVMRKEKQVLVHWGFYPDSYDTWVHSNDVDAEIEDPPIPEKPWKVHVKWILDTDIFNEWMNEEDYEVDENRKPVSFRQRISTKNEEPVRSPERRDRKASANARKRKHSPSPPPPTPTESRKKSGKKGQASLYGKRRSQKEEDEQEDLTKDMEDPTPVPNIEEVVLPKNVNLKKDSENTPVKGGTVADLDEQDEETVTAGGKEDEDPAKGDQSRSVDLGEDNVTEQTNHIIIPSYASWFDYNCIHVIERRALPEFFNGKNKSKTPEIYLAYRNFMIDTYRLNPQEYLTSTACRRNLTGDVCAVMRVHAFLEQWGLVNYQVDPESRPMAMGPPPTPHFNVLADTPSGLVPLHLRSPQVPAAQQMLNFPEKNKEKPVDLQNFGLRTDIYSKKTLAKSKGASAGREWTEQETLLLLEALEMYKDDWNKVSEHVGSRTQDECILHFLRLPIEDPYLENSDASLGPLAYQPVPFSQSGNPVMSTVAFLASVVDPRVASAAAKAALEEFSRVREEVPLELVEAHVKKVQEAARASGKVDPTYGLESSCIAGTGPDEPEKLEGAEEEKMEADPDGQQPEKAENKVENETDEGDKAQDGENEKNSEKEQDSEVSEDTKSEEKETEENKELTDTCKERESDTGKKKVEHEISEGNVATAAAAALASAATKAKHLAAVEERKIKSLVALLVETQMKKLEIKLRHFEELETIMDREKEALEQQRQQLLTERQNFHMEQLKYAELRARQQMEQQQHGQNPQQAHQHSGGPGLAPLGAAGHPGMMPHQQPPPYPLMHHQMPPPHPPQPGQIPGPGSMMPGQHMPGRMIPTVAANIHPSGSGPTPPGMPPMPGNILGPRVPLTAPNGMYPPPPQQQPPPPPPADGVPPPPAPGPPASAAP
UniProt Q8WVK2: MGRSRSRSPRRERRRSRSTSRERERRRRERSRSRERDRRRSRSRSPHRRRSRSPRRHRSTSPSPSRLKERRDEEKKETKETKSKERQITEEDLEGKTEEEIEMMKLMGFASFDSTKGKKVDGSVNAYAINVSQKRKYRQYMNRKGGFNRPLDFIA
UniProt Q96BD0: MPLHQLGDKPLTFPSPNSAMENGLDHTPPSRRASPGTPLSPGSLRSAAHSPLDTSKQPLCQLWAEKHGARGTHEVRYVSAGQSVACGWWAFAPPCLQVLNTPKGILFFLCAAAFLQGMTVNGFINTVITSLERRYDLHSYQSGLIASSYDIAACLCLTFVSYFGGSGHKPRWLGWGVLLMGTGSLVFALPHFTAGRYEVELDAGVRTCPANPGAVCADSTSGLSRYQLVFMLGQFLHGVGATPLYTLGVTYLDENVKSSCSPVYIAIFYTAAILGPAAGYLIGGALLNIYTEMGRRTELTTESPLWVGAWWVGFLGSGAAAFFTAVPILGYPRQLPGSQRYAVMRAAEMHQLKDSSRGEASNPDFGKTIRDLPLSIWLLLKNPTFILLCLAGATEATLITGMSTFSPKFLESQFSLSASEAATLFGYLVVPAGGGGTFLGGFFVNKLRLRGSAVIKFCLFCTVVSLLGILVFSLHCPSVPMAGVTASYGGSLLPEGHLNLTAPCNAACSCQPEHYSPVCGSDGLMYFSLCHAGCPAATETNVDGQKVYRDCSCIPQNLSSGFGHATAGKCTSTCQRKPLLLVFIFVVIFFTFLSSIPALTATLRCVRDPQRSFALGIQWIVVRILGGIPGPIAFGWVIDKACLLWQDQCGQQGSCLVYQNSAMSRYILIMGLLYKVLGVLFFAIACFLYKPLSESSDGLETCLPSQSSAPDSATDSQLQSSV
UniProt Q9Y5W9: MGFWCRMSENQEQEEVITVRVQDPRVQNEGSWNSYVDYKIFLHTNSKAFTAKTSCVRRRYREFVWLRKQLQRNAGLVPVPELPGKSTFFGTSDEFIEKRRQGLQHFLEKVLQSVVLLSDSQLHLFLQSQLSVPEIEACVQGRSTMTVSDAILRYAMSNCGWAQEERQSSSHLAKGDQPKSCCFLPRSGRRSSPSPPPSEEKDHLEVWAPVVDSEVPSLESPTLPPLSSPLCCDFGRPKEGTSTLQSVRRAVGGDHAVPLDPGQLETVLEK
UniProt Q16637, whole entry, looked up: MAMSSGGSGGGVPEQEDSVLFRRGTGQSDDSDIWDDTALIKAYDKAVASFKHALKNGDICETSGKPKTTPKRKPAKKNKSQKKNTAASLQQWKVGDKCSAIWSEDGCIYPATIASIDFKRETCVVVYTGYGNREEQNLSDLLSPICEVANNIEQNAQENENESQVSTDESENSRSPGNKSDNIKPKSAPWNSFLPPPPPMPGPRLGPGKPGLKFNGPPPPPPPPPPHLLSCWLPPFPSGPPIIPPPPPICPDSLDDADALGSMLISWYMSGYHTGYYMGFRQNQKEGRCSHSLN
UniProt Q9BX66: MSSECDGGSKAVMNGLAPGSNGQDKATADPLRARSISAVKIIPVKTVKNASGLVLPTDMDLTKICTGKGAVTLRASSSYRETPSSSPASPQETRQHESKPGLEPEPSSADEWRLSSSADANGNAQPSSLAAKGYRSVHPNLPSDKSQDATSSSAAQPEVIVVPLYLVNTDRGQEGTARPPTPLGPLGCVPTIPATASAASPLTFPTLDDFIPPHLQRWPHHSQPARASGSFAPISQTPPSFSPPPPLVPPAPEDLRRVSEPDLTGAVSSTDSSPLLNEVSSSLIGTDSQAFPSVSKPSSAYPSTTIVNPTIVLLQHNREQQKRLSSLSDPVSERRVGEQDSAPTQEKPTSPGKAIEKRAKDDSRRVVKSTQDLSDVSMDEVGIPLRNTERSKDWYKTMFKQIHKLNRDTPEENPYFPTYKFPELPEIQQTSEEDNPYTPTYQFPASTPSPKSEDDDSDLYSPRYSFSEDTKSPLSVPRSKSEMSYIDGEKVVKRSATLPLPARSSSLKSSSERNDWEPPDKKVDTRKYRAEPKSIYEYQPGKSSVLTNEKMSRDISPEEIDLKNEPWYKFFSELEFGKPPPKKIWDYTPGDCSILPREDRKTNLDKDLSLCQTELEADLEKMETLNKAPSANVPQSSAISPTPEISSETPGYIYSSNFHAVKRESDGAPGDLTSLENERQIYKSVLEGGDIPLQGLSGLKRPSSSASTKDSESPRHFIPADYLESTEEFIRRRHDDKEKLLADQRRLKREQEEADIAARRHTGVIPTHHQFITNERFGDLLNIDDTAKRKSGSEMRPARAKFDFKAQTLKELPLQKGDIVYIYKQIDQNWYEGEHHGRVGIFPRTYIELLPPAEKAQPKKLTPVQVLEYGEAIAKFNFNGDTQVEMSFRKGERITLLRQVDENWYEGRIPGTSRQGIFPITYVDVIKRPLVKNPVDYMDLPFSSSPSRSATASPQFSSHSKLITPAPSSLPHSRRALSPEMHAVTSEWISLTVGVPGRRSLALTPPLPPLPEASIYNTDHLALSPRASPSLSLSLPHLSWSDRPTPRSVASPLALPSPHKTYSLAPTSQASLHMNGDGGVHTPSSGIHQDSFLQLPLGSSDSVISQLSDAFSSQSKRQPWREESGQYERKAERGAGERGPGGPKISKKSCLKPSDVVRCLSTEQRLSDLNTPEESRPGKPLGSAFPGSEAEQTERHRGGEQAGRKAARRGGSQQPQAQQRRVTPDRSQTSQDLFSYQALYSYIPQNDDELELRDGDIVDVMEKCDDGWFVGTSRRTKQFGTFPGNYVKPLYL
UniProt Q9H7B4: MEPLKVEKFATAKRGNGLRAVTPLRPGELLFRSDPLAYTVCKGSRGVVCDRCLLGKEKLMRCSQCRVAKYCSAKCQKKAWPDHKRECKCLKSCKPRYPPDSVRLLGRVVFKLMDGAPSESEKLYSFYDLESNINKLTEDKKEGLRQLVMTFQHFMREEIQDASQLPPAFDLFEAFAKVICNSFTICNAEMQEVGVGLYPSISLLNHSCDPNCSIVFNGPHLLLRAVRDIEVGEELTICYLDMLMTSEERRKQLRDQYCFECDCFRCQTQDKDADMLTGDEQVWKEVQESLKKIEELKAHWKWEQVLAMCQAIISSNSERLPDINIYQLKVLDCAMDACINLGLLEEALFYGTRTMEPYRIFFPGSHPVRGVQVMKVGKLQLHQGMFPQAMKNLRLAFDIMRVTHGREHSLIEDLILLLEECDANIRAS

[2] = compound: CC1=C(SC2=C1C(=N[C@H](C3=NN=C(N32)C)CC(=O)N)C4=CC=C(C=C4)Cl)C
How it was run: as §1

[3] = compound: CC1=C2C(=CC=C1)N=C(N(C2=O)C3=CC=CC=C3C)CN4C=NC5=C(N=CN=C54)N
How it was run: as §1

[4] = compound: Cc1sc2c(c1C)C(c1ccc(Cl)cc1)=N[C@@H](CC(=O)OC(C)(C)C)c1nnc(C)n1-2
How it was run: as §1

[5] = compound: c1ccc([C@@H]2C[C@H]2NC2CCNCC2)cc1
How it was run: as §1

Measured: log2 fold change

SMARCC1 (UniProt Q92922)
inactive: [1] -0.11 | [2] 0.06 | [3] 0.169 | [4] -0.046 | [5] 0.005

SNRNP27 (UniProt Q8WVK2)
inactive: [1] 0.027 | [2] -0.058 | [3] 0.021 | [4] 0.023 | [5] 0.044

SLCO4A1 (UniProt Q96BD0)
inactive: [1] 0.225 | [2] 0.162 | [3] -0.047 | [4] -0.009 | [5] -0.034

SNX11 (UniProt Q9Y5W9)
inactive: [1] 0.004 | [2] 0.063 | [3] 0.108 | [4] 0.057 | [5] -0.027

SMN1 (UniProt Q16637)
inactive: [1] 0.031 | [2] -0.057 | [3] -0.167 | [4] 0.171 | [5] 0.09

SORBS1 isoform 12 (UniProt Q9BX66)
inactive: [1] -0.04 | [2] 0.06 | [3] 0.072 | [4] 0.019 | [5] -0.014

SMYD3 (UniProt Q9H7B4)
inactive: [1] -0.119 | [2] 0.041 | [3] 0.105 | [4] -0.085 | [5] -0.355

From the supplement of paper PMC10849652
